The source of these data is publication PMC5386674.

Sequences of proteins named here, by UniProt entry; tags and fusion partners are left off. A change or cut given only in a name is not applied to a line headed by its entry.
UniProt P97471: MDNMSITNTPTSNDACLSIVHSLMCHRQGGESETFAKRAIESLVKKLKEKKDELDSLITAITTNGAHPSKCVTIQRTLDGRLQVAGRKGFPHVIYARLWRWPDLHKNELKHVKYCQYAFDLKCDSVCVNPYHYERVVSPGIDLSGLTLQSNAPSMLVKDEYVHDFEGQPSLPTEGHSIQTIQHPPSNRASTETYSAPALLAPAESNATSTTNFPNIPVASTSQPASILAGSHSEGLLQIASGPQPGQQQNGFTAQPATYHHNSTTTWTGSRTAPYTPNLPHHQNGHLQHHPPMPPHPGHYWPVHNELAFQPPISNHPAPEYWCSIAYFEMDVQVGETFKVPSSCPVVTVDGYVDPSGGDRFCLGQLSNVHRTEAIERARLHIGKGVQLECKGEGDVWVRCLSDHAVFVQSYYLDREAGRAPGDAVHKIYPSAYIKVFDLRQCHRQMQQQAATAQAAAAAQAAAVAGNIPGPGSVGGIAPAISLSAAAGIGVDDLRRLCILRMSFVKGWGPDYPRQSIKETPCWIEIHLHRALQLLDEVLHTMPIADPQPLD

No constants are given. Whether binding was seen depends on the method and setting. Binding calls can cover weak binding; strength is not graded here. For part of these data: Where a sequence is shown, tags or fusion partners need not be part of it. For part of these data: Binding seen in cells or lysates may run through a third protein.

Test [1] addresses T1, murine WWOX, Sos-tagged bait (pSos) (murine) (UniProt Q91WL8).
T1 sequence: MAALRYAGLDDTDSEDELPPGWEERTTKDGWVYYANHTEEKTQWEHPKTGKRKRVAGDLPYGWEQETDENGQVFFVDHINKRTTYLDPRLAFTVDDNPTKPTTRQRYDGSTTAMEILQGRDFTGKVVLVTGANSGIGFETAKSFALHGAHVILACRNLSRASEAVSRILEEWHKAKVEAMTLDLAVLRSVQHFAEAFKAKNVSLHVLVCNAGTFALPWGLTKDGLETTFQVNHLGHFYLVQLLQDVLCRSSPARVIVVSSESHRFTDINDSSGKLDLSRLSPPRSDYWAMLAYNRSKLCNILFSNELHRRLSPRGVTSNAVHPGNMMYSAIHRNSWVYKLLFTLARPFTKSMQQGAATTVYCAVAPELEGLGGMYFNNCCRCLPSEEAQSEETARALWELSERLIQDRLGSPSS
Put plainly: two-hybrid; competitive binding in the Ras rescue yeast two-hybrid: membrane-anchored Hyal-2 (target), constant amount of WWOX (bait), various amounts of Smad4 (competitor) in the cytoplasm; % colony growth at 37°C over 22°C.

Test [2] has as its target T2, murine Hyal-2, membrane-anchored target (pMyr) (murine) (UniProt O35632).
T2 sequence: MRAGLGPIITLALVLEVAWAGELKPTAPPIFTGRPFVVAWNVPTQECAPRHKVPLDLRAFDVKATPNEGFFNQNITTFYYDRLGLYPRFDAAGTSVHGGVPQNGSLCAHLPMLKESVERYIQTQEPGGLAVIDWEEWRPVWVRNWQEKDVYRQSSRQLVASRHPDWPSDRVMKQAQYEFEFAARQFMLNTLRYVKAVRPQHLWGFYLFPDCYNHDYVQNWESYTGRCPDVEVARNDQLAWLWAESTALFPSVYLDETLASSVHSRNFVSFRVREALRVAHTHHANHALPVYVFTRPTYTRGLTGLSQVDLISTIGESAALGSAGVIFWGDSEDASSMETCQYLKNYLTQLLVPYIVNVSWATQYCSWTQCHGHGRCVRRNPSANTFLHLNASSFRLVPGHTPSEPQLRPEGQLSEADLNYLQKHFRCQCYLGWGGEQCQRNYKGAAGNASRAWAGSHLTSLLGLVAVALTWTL
Put plainly: two-hybrid; Ras rescue-based cytoplasmic yeast two-hybrid (CytoTrap, Stratagene); Sos-tagged bait in the cytoplasm, myristoylated target on the membrane; growth of cdc25H yeast at 37°C on selective galactose plates.

For test [3], the target named is ECFP-Smad4 (not stated (murine Smad4 cDNA cloned)) (UniProt P97471). Briefly: FRET or BRET; time-lapse tri-molecular FRET microscopy in DU145 cells transiently expressing ECFP-, EGFP- and DsRed-monomer-tagged proteins, stimulated with HA (25 μg/ml); FRETc. Background: BRET reads energy transfer from a luciferase to a nearby fluorophore.

With “Smad4 (competitor, expressed in the yeast cytoplasm) (from UniProt P97471)”, the binding entry in test [1] is given as “binds”.
For the molecule “WWOXww (the first WW domain of murine WWOX), Sos-tagged bait (domain or fragment)”, the binding entry in test [2] was “binds”.

B1: EGFP-WWOX (murine) (protein, UniProt Q91WL8 1-414)
chain: T1 sequence
As to B1, the binding entry in test [3] is on record as “binds”.
